# Data reported in PubChem BioAssay AID540275 (National Center for Advancing Translational Sciences (NCATS), 2011).
# Chains of the proteins cited; added tags and fusions are not shown.
# UniProt Q8NER1, whole entry, looked up: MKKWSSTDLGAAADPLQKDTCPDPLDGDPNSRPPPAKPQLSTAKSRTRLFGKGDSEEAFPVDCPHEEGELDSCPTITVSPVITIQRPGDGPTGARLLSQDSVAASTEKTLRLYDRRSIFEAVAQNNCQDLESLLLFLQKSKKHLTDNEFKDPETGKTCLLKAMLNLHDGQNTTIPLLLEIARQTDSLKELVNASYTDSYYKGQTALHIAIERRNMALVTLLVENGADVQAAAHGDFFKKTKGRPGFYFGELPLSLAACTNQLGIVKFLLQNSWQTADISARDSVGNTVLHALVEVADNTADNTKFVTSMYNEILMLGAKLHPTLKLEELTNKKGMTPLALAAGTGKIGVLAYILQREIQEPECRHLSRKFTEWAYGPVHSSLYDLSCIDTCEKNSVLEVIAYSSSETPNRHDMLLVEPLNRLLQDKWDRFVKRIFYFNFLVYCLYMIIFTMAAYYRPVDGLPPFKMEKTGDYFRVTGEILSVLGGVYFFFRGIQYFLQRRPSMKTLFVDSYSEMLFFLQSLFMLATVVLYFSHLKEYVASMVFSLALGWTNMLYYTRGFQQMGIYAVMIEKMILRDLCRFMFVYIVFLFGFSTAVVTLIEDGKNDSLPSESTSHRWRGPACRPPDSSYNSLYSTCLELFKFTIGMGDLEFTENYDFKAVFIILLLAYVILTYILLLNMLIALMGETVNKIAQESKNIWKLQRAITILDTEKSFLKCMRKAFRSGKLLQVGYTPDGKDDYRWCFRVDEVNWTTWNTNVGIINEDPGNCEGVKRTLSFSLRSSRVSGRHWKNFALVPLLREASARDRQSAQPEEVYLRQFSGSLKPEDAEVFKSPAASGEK
# Several values for one entry are separate records, joined by “and”; a condition that tells them apart may be missing. Identical values can stand only once. Screen size: about 320,000 compounds; about 620 (0.19%) were called active. Inconclusive means that the source gave no clear call. Such entries were picked first, then a sample of the others. Cut-off read from the data, not from the text of the source: active = activation above about 80%; inconclusive = between about 30% and that limit; inactive = weaker than that.
# Biological target: Transient receptor potential cation channel subfamily V member 1 (Homo sapiens) (UniProt Q8NER1)
# Assay: HTS Assay for Compounds that Act as Agonists of the Vanilloid Receptor 1; note: 0% is about no effect
# Settings: TRPV1-expressing cells, Fluo-8 calcium influx, agonist mode; at 8.33 µM, stronger effect = higher value
# How it was run: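 Cells expressing TRPV1 were dye-loaded with Fluo-8 and read kinetically: 10 s baseline, 3 min after compound (agonist portion), then 2 min after EC20 capsaicin (allosteric enhancer portion). Calcium-bound dye fluorescence at 480/520 nm.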
row,SMILES,activation
1,Cc1cc([N+](=O)[O-])ccc1NC(=O)CN1CCN(Cc2ccccc2)CC1,inactive: 2.37%
2,CCOC(=O)c1ccc(NC(=O)c2ccc3c(c2)OCO3)cc1,inconclusive: 56.7%
3,Cc1cc([N+](=O)[O-])nn1CC(=O)Nc1ccc(F)cc1,inactive: 18.5%
4,CCc1ccc(N(C(=O)Cc2cccs2)C(C(=O)NC2CCCCC2)c2cn(C)nc2C)cc1 (stereo unspecified),inconclusive: 45%
5,Cc1ccc(O/C=C2\OC(=O)c3ccccc32)cc1,inconclusive: 30.3%
6,CCOC(=O)c1ccccc1NC(=S)N1CC(C)CC(C)C1 (stereo unspecified),inconclusive: 30.5%
7,COc1ccc(Cl)cc1NC(=O)CN(C)C(=O)Cn1c(=O)oc2ccccc21,inconclusive: 44.4%
8,Cc1ccc(S(=O)(=O)N(CC(=O)N/N=C/c2cccc(C)c2)c2cccc3cccnc23)cc1,inactive: 0.555%
9,CC(Oc1cccc(Cl)c1)C(=O)Nc1cc(=O)n(C)c(=O)n1C (stereo unspecified),inconclusive: 31%
10,O=C(Nc1ccccc1F)C1CCN(C(=O)NCc2ccccc2)CC1,inconclusive: 53.7%
11,CCOC(=O)C1C(c2cccc(Cl)c2Cl)NC(=O)NC1(O)C(F)(F)F (stereo unspecified),inactive: 9.14%
12,Cc1ccc(NC(=O)c2ccc(COc3ccccc3)o2)nc1,inconclusive: 45%
13,O=C(Nc1ccccc1C(=O)Nc1ccc(Br)cn1)c1ccccc1Cl,inconclusive: 36.9%
14,Cc1ccc(C(=O)N/N=C(\CC(C)C)c2ccccc2)cc1,inconclusive: 35.2%
15,Cn1c(NCc2ccco2)nc2c1c(=O)n(Cc1ccc(Cl)cc1)c(=O)n2C,inactive: 18.1%
16,CC(=O)c1cccc(NC(=O)COc2ccc(S(=O)(=O)N3CCCCC3)cc2)c1,inconclusive: 30.9%
17,Cc1ccnc(NC(=O)c2cc(S(=O)(=O)N3CCCCC3)ccc2Cl)c1,inconclusive: 35.1%
18,Cc1ccc(SCC(=O)OCC(=O)NC2CCCCCC2)cc1,inactive: 24.4%
19,CC(Oc1ccc(F)cc1)C(=O)Nc1ccc2ccccc2c1 (stereo unspecified),inconclusive: 48.4%
20,Cc1cccc(C)c1NC(=O)COC(=O)c1cc(=O)c2ccccc2o1,inactive: 2.64%
21,CCOC(=O)c1ccc(NC(=O)CCC2COc3ccccc3O2)cc1 (stereo unspecified),inconclusive: 35.6%
22,O=C(NCc1ccc(F)cc1)C(c1ccccc1)c1ccccc1,inactive: 7.99%
23,Cc1cccc(Cc2ccc(Cl)nn2)c1,inactive: -3.44%

row,SMILES,activation
1,CN(C)n1cccc1/C=C(\C#N)S(=O)(=O)c1cccc(Cl)c1,inconclusive: 37.7%
2,Cc1ccc(-c2cnn(-c3cccc(C(F)(F)F)c3)c2N)cc1,inconclusive: 44%
3,O=C(NC1CCCc2ccccc21)C1CCN(c2nnc(-n3cccc3)s2)CC1 (stereo unspecified),inactive: -0.384%
4,CCCn1c(SC(C(=O)Nc2cc(C)ccc2OC)c2ccccc2)nc2ccccc2c1=O (stereo unspecified),inactive: 17%
5,Cc1ccc(NC(=O)CCC(=O)Nc2nnc(C3CCCCC3)s2)cc1,inactive: 5.27%
6,Clc1ccc2nc(N3CCCCC3)[nH]c2c1,inconclusive: 38.6%
7,Cc1cc(NC(=O)CSc2nc(-c3ccco3)cc(C(F)(F)F)n2)no1,inactive: 2.21%
8,CNC(=O)c1ccc(-c2nc(-c3ccccc3)cs2)cc1,inconclusive: 61%
9,O=C(NCc1ccccc1)N1CCN(c2ccc(F)cc2)CC1,inconclusive: 74.6%
10,Cc1ccc(/C(N)=N/OC(=O)c2cccs2)cc1,inactive: 4.84%
11,COc1ccc(S(=O)(=O)N(C)CC(=O)Nc2ccc(C(F)(F)F)cc2)cc1Cl,inconclusive: 50.8%
12,CCOc1ccccc1CNC(=O)C1CCCN(c2nc3ccccc3o2)C1 (stereo unspecified),inconclusive: 33.6%
13,COc1ccc(N2CCN(c3nc(NCCc4ccc(OC)c(OC)c4)nc(OC)n3)CC2)cc1,inconclusive: 39.5%
14,O=C(/C=C/c1cccs1)N1CCN(c2ccc(F)cc2)CC1,inconclusive: 43.7%
15,O=c1c(Cl)c(NCc2ccccc2)cnn1C12CC3CC(CC(C3)C1)C2,inconclusive: 74.3%
16,COc1cccc(CNC(=O)CCSCc2ccccc2F)c1,inconclusive: 74%
17,COC(=O)C1=C(C)N(c2ccc(C)c(C)c2)/C(=C/c2ccc(O)cc2)C1=O,inconclusive: 34.5%
18,COC(=O)c1ccc(COc2cccc3c2CCN(Cc2ccccc2)C3=O)o1,inconclusive: 32.8%
19,CCOc1cccc(/C=N/NC(=S)Nc2ccccc2[N+](=O)[O-])c1O,inactive: 3.34%
20,Cc1c(C(=O)OCC(C)C)[nH]c2c1C(=O)CC(c1ccco1)C2 (stereo unspecified),inconclusive: 60.1%
21,CN(CC(=O)Nc1ccc(F)cc1)C(=O)c1cccc(S(=O)(=O)N2CCN(c3ccc(F)cc3)CC2)c1,inactive: -0.0041%
22,CCCN1CCC(=O)N([C@H](COc2ccccc2)CC(C)C)CC1,inactive: 4.87%
23,Cc1cccc(NC(=O)C2CCN(S(=O)(=O)c3cccc4nonc34)CC2)c1,inconclusive: 36.3%

row,SMILES,activation
1,O=C(Cc1ccccc1)N/N=C/c1cccc([N+](=O)[O-])c1,inconclusive: 33.7%
2,O=c1oc2c(CN3CCOCC3)c(O)ccc2c2c1CCC2,inactive: -1.19%
3,CCn1nnnc1SCC(=O)NCc1ccco1,inactive: 2.23%
4,CC(C)(C)C1CCc2onc(C(=O)Nc3ccc4c(c3)OCO4)c2C1 (stereo unspecified),inconclusive: 52.6%
5,CC(C)C1OC2(C)OC(=N)C1(C#N)C(C#N)(C#N)C2c1ccccc1 (stereo unspecified),inactive: 2.17%
6,O=c1cc2c(nn1Cc1cccc(Cl)c1)-c1ccccc1CC2,inconclusive: 37.6%
7,COc1ccc(CN2C(=O)[C@@H]3C(c4ccccc4Cl)=NO[C@@H]3C2=O)cc1,inconclusive: 46.3%
8,Cc1ccc(Nc2nc(N)c([N+](=O)[O-])c(N3CCOCC3)n2)cc1C,inactive: -6.4%
9,Cc1ccsc1C(=O)NNC(=O)Nc1ccc(Cl)c(Cl)c1,inactive: 0.196%
10,CCN1CCN(c2ccc(NC(=O)c3ccc(Br)o3)cc2)CC1,inactive: 5.12%
11,CCOCCn1c(COc2ccccc2)nc2ccccc21,inconclusive: 41.8%
12,CN(CC(=O)NCc1ccccc1Cl)CC(=O)Nc1ccccc1Br,inconclusive: 30%
13,CCC(=O)N/N=C(\C)CC(=O)Nc1ccc2c(c1)OCCO2,inconclusive: 39.7%
14,COc1ccc(C/C(C)=N/NC(=S)Nc2ccc(C)c(C)c2)cc1,inactive: 0.929%
15,CCCCNC(=S)NC1CCCC1,inactive: 21.9%
16,COc1cccc(-c2nc(Cc3ccc(OC)c(OC)c3)no2)c1,inconclusive: 42.5%
17,Cc1ccc(F)c([C@H]2[C@@H]3C=CCC[C@@]3(C)C(=O)N2Cc2ccccc2)c1,inconclusive: 43.7%
18,COc1ccc(CN2C(=O)c3cccnc3C2=O)cc1S(=O)(=O)N1CCOc2ccc(Cl)cc21,inactive: -2.36%
19,CCc1ccc(NC(=O)C(=O)NCCN2CCN(Cc3ccc([N+](=O)[O-])cc3)CC2)cc1,inactive: 0.935%
20,CCOc1ccccc1OCc1nn2c(COc3ccccc3)nnc2s1,inconclusive: 32.9%
21,CC/C(O)=C(\C#N)c1nnc2n1CCCCC2,inactive: -0.827%
22,Nc1ccccc1C(=O)NCc1ccc(Cl)cc1,inconclusive: 31.6%
23,CCCCc1ccc(NC(=O)COCC)cc1,inconclusive: 49%

row,SMILES,activation
1,CCOC(=O)N1CCN(C(=O)CCn2c(=S)[nH]c3ccsc3c2=O)CC1,inactive: -0.509%
2,CN(Cc1ccccc1)C(=O)c1ccc(NC(=O)Cc2cccc(NC(=O)C3CCN(C(=O)C4CCCCC4)CC3)c2)cc1,inactive: 2.48%
3,Cc1cc(=O)n2nc(N3CCCC3C(=O)NCCCN3CCCCC3)sc2n1 (stereo unspecified),inconclusive: 44.5%
4,CCOc1ccc(NC(=O)CC2C(=O)N(c3ccccc3)C(=O)N2Cc2ccco2)cc1 (stereo unspecified),inactive: -0.856%
5,CCCCCCCC(=O)N/N=C/c1cccnc1,inconclusive: 40.5%
6,CC(C)CNC(=O)CN1C(=O)NC2(CCCc3ccccc32)C1=O (stereo unspecified),inactive: 1.6%
7,Cc1ccc(C(=O)Nc2ccc(Oc3cccc(C(F)(F)F)c3)nc2)cc1,inconclusive: 61.6%
8,O=C(NCCC1=CCCCC1)C1CCN(S(=O)(=O)N2CCCC2)CC1,inactive: 2.16%
9,O=C(Nc1cccc(-c2nc3ncccc3o2)c1)c1cc2ccccc2o1,inconclusive: 38.2%
10,CCOC(=O)Nc1c2ccccc2nc2ccccc12,inconclusive: 31%
11,CCCCC(O)(c1ccc(OC)cc1)C(CN1CCOCC1)c1ccccc1 (stereo unspecified),inconclusive: 38.3%
12,Cc1ccc(S(=O)(=O)c2c(C)nn(C(C)(C)C)c2OC(=O)CC(C)C)cc1,inconclusive: 32%
13,CNC(=O)c1cc(-c2ccc(Cl)cc2)n(-c2ccccc2)n1,inconclusive: 68.6%
14,Cc1ccccc1OCc1n(CC(=O)OC2CC(C)CCC2C(C)C)c2ccccc2[n+]1C (stereo unspecified),inactive: 22.6% and inactive: 3.5%
15,O=C(Nc1ccc2ccccc2c1)c1ccc(Cl)cc1Cl,inconclusive: 34%
16,O=C(NCCS(=O)(=O)NCc1ccccc1Cl)c1ccc2c(c1)OCO2,inactive: 16.6%
17,Cc1cccc(NNC(N)=S)c1,inactive: 1.33%
18,CCn1cc(C(=O)O)c(=O)c2cc(F)c(N3CCN(C(=S)NC(=O)c4cc(OC)cc(OC)c4)CC3)cc21,inactive: 0.619%
19,COc1cc(Cl)c(C)cc1NC(=O)CN(C)Cc1cccc(OC)c1OC,inactive: -3.82%
20,O=C(/C=C/c1ccc[nH]1)c1ccccc1,inconclusive: 58.6%
21,CC(C)c1cc(C(=O)Nc2cccc(C(F)(F)F)c2)no1,inconclusive: 65.7%
22,Cc1ccc(S[C@@H](CCN2CC[C@H](C)CCC2=O)c2ccccc2)cc1,inconclusive: 68.5%
